Compound in the test: Nc1ncnc2c1ncn2[C@@H]1O[C@H](COP(=O)(O)OP(=O)(O)OP(=O)(O)O)[C@@H](O)[C@H]1O [adenosine triphosphate]
The test is described as follows: NP40-soluble protein abundance relative to vehicle (solubility fold change) (ratio); higher = more soluble protein in presence of ATP. An outline of the steps: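 Eight concentrations, 0.1 to 10 mM, were tested on Jurkat crude lysate for 10 min at room temperature and then 3 min at 37 °C, in three independent experiments. The lysate was solubilised with 0.8% NP40 and benzonase, ultracentrifuged, and the supernatant TMT-labelled for LC-MS/MS. Each value is the fold change against the detergent-processed vehicle in its own replicate, from vsn-normalised intensities.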

Protein sequences, listed by entry. Tags and fused reporters are not part of them. Lines headed by an entry give the natural chain unless they say otherwise; changes in a name come on top.
UniProt Q76I76: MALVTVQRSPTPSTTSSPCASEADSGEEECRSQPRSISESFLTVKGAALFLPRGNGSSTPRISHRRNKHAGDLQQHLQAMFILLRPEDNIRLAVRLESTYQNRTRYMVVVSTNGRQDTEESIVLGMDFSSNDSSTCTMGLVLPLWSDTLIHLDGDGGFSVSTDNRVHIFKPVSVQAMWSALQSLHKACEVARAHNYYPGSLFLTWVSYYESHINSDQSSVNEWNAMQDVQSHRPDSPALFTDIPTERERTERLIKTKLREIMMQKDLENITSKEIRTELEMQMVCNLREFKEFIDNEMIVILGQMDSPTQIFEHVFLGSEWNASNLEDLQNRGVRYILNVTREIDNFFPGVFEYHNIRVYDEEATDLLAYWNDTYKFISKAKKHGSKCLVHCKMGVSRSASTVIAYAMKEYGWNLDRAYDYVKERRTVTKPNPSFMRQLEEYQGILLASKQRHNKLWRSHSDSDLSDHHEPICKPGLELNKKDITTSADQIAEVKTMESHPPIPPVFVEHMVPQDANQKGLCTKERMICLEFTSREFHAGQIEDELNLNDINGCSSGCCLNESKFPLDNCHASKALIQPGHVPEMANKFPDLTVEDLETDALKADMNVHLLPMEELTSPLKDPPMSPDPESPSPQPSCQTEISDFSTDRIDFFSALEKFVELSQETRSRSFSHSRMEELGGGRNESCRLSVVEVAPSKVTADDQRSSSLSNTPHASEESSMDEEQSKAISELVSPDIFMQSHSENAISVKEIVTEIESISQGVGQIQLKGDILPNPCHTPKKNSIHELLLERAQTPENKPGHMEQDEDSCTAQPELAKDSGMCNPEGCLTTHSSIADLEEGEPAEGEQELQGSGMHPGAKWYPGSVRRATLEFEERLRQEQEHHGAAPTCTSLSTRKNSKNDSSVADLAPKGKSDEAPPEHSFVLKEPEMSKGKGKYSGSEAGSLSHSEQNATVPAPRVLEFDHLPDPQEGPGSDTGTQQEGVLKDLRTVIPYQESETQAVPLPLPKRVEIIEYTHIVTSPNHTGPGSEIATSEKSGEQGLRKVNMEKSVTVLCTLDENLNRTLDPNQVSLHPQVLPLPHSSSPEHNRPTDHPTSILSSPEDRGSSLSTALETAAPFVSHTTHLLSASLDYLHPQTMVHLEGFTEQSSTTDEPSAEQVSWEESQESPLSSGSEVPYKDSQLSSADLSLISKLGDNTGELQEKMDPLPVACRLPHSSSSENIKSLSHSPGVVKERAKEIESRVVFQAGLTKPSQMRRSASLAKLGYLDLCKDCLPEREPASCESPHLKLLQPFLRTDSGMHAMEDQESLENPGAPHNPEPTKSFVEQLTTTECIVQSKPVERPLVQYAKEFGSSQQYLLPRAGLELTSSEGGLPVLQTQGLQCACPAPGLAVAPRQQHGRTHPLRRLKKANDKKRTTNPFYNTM
UniProt P04406: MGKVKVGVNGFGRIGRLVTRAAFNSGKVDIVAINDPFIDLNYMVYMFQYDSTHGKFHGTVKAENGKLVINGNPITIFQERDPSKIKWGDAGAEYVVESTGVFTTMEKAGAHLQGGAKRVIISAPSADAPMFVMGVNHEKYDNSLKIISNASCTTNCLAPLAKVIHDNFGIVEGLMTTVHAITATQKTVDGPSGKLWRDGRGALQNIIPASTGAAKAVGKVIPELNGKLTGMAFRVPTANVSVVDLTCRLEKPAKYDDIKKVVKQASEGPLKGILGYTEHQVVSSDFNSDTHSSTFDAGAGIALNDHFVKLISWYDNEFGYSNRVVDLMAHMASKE
UniProt Q96ME7: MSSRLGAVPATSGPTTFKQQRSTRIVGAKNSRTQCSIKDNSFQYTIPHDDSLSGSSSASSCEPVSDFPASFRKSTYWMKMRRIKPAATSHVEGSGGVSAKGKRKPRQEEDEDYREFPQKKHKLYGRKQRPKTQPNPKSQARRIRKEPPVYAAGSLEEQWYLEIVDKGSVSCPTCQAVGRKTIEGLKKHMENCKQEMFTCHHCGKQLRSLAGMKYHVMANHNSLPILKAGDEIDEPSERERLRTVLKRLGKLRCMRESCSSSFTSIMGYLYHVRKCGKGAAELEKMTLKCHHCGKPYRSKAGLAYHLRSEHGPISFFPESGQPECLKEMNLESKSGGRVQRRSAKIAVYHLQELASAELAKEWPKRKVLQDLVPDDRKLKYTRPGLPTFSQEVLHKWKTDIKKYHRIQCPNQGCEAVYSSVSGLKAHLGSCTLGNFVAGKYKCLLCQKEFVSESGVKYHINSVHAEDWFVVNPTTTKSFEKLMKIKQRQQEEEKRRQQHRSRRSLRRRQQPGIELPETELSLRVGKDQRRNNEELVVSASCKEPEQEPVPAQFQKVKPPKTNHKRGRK
UniProt P29692: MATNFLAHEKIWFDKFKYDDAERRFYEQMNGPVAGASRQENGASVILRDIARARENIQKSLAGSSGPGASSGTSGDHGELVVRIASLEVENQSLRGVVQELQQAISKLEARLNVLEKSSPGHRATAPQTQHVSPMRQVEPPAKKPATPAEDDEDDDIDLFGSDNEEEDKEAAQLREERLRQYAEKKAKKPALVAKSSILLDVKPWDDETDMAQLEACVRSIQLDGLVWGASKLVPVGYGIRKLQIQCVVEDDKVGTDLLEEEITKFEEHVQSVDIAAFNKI
UniProt Q96MF7: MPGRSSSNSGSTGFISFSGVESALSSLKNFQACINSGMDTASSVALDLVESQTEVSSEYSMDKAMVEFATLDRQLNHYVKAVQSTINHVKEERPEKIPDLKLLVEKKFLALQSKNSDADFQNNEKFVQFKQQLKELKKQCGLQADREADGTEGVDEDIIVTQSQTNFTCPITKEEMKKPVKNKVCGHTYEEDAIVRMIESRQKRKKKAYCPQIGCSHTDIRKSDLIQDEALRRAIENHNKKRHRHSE
UniProt Q96ER3: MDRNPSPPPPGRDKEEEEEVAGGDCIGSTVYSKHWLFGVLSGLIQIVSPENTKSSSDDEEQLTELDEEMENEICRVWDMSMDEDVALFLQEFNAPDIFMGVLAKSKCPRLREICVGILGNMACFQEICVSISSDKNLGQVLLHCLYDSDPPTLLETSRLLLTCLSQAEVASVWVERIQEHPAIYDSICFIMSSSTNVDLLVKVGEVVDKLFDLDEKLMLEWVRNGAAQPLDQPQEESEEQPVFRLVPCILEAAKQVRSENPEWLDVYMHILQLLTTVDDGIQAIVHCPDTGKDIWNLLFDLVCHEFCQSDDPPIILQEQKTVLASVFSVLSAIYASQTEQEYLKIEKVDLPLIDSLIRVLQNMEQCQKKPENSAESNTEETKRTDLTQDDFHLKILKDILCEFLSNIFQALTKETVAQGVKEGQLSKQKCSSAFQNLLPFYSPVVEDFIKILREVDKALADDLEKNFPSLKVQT
UniProt O95267: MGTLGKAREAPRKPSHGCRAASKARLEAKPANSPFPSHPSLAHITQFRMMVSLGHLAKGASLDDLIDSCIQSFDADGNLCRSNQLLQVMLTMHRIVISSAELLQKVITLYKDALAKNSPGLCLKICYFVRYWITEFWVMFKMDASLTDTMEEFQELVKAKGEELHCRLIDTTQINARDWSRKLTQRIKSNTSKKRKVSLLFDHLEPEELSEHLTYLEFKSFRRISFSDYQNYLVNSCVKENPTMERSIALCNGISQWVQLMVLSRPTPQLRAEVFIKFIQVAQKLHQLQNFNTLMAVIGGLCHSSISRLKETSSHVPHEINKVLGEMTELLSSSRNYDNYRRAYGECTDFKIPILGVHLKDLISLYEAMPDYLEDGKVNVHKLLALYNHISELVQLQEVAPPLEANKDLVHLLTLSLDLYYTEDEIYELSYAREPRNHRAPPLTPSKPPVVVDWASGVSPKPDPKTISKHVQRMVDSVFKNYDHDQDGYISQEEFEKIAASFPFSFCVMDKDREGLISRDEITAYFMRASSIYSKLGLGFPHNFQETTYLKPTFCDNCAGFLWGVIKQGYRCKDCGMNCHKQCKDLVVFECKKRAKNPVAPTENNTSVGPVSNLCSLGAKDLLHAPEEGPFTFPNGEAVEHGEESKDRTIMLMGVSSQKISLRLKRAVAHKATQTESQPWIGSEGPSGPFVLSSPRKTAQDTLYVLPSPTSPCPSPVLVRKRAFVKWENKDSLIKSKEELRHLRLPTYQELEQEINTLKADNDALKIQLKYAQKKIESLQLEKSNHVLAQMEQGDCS
UniProt O43795: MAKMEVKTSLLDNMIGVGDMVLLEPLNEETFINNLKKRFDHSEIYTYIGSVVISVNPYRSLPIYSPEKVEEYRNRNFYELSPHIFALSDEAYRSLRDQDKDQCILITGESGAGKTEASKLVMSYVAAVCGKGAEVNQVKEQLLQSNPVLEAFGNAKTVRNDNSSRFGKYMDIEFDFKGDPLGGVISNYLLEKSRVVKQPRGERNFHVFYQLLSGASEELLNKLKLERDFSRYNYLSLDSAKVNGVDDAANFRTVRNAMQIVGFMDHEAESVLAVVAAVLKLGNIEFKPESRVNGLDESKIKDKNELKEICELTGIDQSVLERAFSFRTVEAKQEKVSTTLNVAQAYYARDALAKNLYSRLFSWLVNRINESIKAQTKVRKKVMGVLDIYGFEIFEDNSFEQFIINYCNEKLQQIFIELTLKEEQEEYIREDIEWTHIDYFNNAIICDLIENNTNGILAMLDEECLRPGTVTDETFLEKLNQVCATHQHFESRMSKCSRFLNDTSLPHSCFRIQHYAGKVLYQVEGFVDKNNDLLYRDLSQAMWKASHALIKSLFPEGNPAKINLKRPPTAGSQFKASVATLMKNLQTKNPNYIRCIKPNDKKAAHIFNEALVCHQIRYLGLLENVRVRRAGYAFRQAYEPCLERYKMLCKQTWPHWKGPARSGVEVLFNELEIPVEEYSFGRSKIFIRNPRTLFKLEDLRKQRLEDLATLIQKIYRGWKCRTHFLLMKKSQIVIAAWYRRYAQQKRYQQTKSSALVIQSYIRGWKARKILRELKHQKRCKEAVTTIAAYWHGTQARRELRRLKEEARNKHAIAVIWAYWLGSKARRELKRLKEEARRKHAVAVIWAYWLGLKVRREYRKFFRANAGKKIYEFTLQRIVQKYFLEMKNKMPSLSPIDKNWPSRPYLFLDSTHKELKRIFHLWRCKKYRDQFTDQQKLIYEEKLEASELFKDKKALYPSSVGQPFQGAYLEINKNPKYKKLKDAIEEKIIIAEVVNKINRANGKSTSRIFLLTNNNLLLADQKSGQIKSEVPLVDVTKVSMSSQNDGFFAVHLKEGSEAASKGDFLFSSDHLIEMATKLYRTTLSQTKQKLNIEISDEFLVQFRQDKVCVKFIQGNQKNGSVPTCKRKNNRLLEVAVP
UniProt Q92993, whole entry, looked up: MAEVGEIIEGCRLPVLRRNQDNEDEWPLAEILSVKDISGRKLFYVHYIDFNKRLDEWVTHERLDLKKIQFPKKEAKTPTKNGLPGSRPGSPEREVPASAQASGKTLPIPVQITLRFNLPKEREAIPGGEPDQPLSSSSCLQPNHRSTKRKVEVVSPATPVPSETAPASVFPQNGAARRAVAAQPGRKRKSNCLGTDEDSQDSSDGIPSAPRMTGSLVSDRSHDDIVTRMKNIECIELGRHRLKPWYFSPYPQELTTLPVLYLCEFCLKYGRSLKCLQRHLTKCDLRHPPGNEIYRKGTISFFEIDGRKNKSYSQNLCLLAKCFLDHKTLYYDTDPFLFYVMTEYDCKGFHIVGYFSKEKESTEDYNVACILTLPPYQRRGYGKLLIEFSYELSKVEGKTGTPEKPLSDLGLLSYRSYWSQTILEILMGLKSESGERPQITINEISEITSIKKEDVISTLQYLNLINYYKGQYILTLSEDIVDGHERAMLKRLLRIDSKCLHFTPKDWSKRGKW
UniProt Q6UW02: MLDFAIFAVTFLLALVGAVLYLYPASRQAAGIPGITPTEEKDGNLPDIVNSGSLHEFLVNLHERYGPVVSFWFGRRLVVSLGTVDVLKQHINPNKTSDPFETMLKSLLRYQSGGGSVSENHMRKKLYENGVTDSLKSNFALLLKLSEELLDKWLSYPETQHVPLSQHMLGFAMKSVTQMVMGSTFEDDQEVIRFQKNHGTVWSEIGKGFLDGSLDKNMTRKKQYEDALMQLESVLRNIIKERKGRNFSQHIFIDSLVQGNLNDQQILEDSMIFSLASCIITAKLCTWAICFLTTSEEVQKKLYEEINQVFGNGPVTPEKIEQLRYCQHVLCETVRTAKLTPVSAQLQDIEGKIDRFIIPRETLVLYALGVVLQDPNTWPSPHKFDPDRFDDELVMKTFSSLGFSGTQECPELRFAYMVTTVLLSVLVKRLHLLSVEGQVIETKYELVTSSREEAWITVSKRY

± gives the standard deviation of the averaged measurements. Only a part is listed here, and it is no random draw. Most values lie at the level of the controls, where differences are scatter.

For “F5H527 and related entries (UniProt Q76I76)”, the NP40-soluble protein abundance reads like this: (concentration: 0.1mM) 1.02 ± 0.04; (concentration: 0.5mM) 0.997 ± 0.076; (concentration: 1mM) 0.984 ± 0.012; (concentration: 2mM) 1 ± 0.016; (concentration: 4mM) 0.993 ± 0.03; (concentration: 6mM) 0.997 ± 0.013. The NP40-soluble protein abundance worked out at 0.978 ± 0.037 (concentration: 8mM) and 0.995 ± 0.062 (concentration: 10mM).

Regarding “E7EUT5 and related entries (UniProt P04406)”, the NP40-soluble protein abundance runs as follows: (concentration: 0.1mM) 1.07 ± 0.018; (concentration: 0.5mM) 0.994 ± 0.065; (concentration: 1mM) 1.01 ± 0.012; (concentration: 2mM) 0.959 ± 0.074; (concentration: 4mM) 0.9969 ± 0.0069; (concentration: 6mM) 0.939 ± 0.043. Also, the NP40-soluble protein abundance (concentration: 8mM) was 0.954 ± 0.024 and the NP40-soluble protein abundance (concentration: 10mM) was determined as 0.944 ± 0.059.

In the case of “G3XAG1 and related entries (UniProt Q96ME7)”, the NP40-soluble protein abundance runs as follows: (concentration: 0.1mM) 1.05 ± 0.057; (concentration: 0.5mM) 1.27 ± 0.052; (concentration: 1mM) 1.34 ± 0.038; (concentration: 2mM) 1.407 ± 0.0052; (concentration: 4mM) 1.58 ± 0.019; (concentration: 6mM) 1.71 ± 0.061. Besides, the NP40-soluble protein abundance by setting is: (concentration: 8mM) 1.88 ± 0.046; (concentration: 10mM) 2.06 ± 0.081.

Consider “E7ETR1 and related entries (UniProt Q8NCB2)”, for which the NP40-soluble protein abundance (concentration: 0.1mM) came out at 0.978 ± 0.029 and the NP40-soluble protein abundance (concentration: 0.5mM) was determined as 0.9736 ± 0.0026.

As for “E9PRY8 and related entries (UniProt P29692)”, the NP40-soluble protein abundance was 0.949 ± 0.053 (concentration: 0.1mM); 0.915 ± 0.05 (concentration: 0.5mM); 0.959 ± 0.054 (concentration: 1mM); 0.931 ± 0.034 (concentration: 2mM); 0.894 ± 0.03 (concentration: 4mM); 0.912 ± 0.091 (concentration: 6mM). The NP40-soluble protein abundance (concentration: 8mM) was determined as 0.88 ± 0.042 and the NP40-soluble protein abundance (concentration: 10mM) was determined as 0.865 ± 0.015.

As for UniProt E9PSI1, the NP40-soluble protein abundance (concentration: 0.1mM) stood at 1.01 ± 0.052; the NP40-soluble protein abundance (concentration: 0.5mM) worked out at 1.01 ± 0.015; the NP40-soluble protein abundance (concentration: 1mM) turned out to be 0.9713 ± 0.0047; the NP40-soluble protein abundance (concentration: 2mM) amounted to 0.986 ± 0.015; the NP40-soluble protein abundance (concentration: 4mM) stood at 0.981 ± 0.015; the NP40-soluble protein abundance (concentration: 6mM) is 0.939 ± 0.037. In addition, the NP40-soluble protein abundance is 0.958 ± 0.044 (concentration: 8mM) and 0.96 ± 0.04 (concentration: 10mM).

As for “F8W689 and related entries (UniProt P48382)”, the NP40-soluble protein abundance (concentration: 0.1mM) worked out at 0.946 ± 0.035 and the NP40-soluble protein abundance (concentration: 0.5mM) was 0.954 ± 0.0086.

As for “G3V1A6 and related entries (UniProt P57764)”, the NP40-soluble protein abundance (concentration: 0.1mM) came to 1.05 ± 0.051 and the NP40-soluble protein abundance (concentration: 0.5mM) was 1.05 ± 0.064.

In the case of “E5RFJ1 and related entries (UniProt Q96MF7)”, the NP40-soluble protein abundance (concentration: 0.1mM) is 1.02 ± 0.039; the NP40-soluble protein abundance (concentration: 0.5mM) was determined as 1.02 ± 0.036; the NP40-soluble protein abundance (concentration: 1mM) is 1.04 ± 0.053; the NP40-soluble protein abundance (concentration: 2mM) was 1.04 ± 0.012; the NP40-soluble protein abundance (concentration: 4mM) was found to be 1.03 ± 0.017; the NP40-soluble protein abundance (concentration: 6mM) turned out to be 1.09 ± 0.036. Moreover, the NP40-soluble protein abundance is, setting by setting: (concentration: 8mM) 1.01 ± 0.018; (concentration: 10mM) 1 ± 0.034.

As for “G3XAC1 and related entries (UniProt Q9BXS9)”, the NP40-soluble protein abundance (concentration: 0.1mM) turned out to be 0.964 ± 0.031; the NP40-soluble protein abundance (concentration: 0.5mM) amounted to 0.935 ± 0.07; the NP40-soluble protein abundance (concentration: 1mM) was found to be 0.909 ± 0.018; the NP40-soluble protein abundance (concentration: 2mM) turned out to be 0.891 ± 0.037; the NP40-soluble protein abundance (concentration: 4mM) came to 0.918 ± 0.073; the NP40-soluble protein abundance (concentration: 6mM) turned out to be 0.885 ± 0.022. The NP40-soluble protein abundance reads like this: (concentration: 8mM) 0.867 ± 0.074; (concentration: 10mM) 0.863 ± 0.071.

In the case of “E9PJN1 and related entries (UniProt O75676)”, the NP40-soluble protein abundance stood at 1.31 ± 0.29 (concentration: 0.1mM); 1.38 ± 0.15 (concentration: 0.5mM); 1.36 ± 0.22 (concentration: 1mM); 2.6 ± 1.5 (concentration: 2mM); 1.34 ± 0.17 (concentration: 4mM); 1.35 ± 0.17 (concentration: 6mM). Further, the NP40-soluble protein abundance (concentration: 8mM) was determined as 1.31 ± 0.26 and the NP40-soluble protein abundance (concentration: 10mM) worked out at 1.38 ± 0.13.

Consider “E7EPN9 and related entries (UniProt Q9Y520)”, for which the NP40-soluble protein abundance reads like this: (concentration: 0.1mM) 0.971 ± 0.026; (concentration: 0.5mM) 1.02 ± 0.013.

Take “E9PL53 and related entries (UniProt Q96ER3)”: the NP40-soluble protein abundance is 0.98 ± 0.036 (concentration: 0.1mM); 0.964 ± 0.023 (concentration: 0.5mM); 0.966 ± 0.034 (concentration: 1mM); 0.9715 ± 0.0057 (concentration: 2mM); 0.951 ± 0.013 (concentration: 4mM); 0.997 ± 0.019 (concentration: 6mM). Moreover, the NP40-soluble protein abundance is, setting by setting: (concentration: 8mM) 0.9485 ± 0.0047; (concentration: 10mM) 0.925 ± 0.011.

As to “F8W060 and related entries (UniProt Q9BZF1)”, the NP40-soluble protein abundance runs as follows: (concentration: 0.1mM) 1.01 ± 0.031; (concentration: 0.5mM) 0.998 ± 0.045; (concentration: 1mM) 0.936 ± 0.018; (concentration: 2mM) 0.933 ± 0.035; (concentration: 4mM) 0.939 ± 0.018; (concentration: 6mM) 0.927 ± 0.046. Also, the NP40-soluble protein abundance runs as follows: (concentration: 8mM) 0.964 ± 0.013; (concentration: 10mM) 0.959 ± 0.045.

“E7ET89 and related entries (UniProt Q86UW9)”: the NP40-soluble protein abundance reads like this: (concentration: 0.1mM) 0.969 ± 0.1; (concentration: 0.5mM) 1.011 ± 0.0029; (concentration: 1mM) 0.936 ± 0.2; (concentration: 2mM) 1.09 ± 0.15; (concentration: 4mM) 1.05 ± 0.11; (concentration: 6mM) 1.04 ± 0.039. Besides, the NP40-soluble protein abundance (concentration: 8mM) stood at 1.03 ± 0.086 and the NP40-soluble protein abundance (concentration: 10mM) was determined as 1.04 ± 0.035.

Turning to “F5H514 and related entries (UniProt O95267)”, the NP40-soluble protein abundance by setting is: (concentration: 0.1mM) 0.914 ± 0.04; (concentration: 0.5mM) 1.07 ± 0.11; (concentration: 1mM) 1.04 ± 0.12; (concentration: 2mM) 1.09 ± 0.046; (concentration: 4mM) 1.19 ± 0.15; (concentration: 6mM) 1.21 ± 0.13. Also, the NP40-soluble protein abundance by setting is: (concentration: 8mM) 1.14 ± 0.065; (concentration: 10mM) 1.24 ± 0.15.

Turning to “F8W9X7 and related entries (UniProt Q567U6)”, the NP40-soluble protein abundance came out at 0.992 ± 0.013 (concentration: 0.1mM); 0.996 ± 0.032 (concentration: 0.5mM); 0.974 ± 0.012 (concentration: 1mM); 0.962 ± 0.017 (concentration: 2mM); 0.959 ± 0.024 (concentration: 4mM); 0.935 ± 0.015 (concentration: 6mM). Besides, the NP40-soluble protein abundance reads like this: (concentration: 8mM) 0.951 ± 0.016; (concentration: 10mM) 0.943 ± 0.028.

With “E9PDF6 and related entries (UniProt O43795)”, the NP40-soluble protein abundance reads like this: (concentration: 0.1mM) 1.13 ± 0.043; (concentration: 0.5mM) 2.71 ± 0.17; (concentration: 1mM) 2.78 ± 0.047; (concentration: 2mM) 2.71 ± 0.065; (concentration: 4mM) 2.65 ± 0.15; (concentration: 6mM) 2.65 ± 0.21. For the same target, the NP40-soluble protein abundance worked out at 2.82 ± 0.17 (concentration: 8mM) and 2.67 ± 0.12 (concentration: 10mM).

Regarding “E9PJI1 and related entries (UniProt Q92993)”, the NP40-soluble protein abundance by setting is: (concentration: 0.1mM) 0.999 ± 0.073; (concentration: 0.5mM) 1 ± 0.13; (concentration: 1mM) 1.06 ± 0.12; (concentration: 2mM) 0.959 ± 0.11; (concentration: 4mM) 1.13 ± 0.17; (concentration: 6mM) 1.1 ± 0.19. Besides, the NP40-soluble protein abundance (concentration: 8mM) turned out to be 1.06 ± 0.21 and the NP40-soluble protein abundance (concentration: 10mM) was 1.13 ± 0.1.

Regarding “E9PHG5 and related entries (UniProt Q6UW02)”, the NP40-soluble protein abundance runs as follows: (concentration: 0.1mM) 1.07 ± 0.19; (concentration: 0.5mM) 1.1 ± 0.17; (concentration: 1mM) 1.11 ± 0.13; (concentration: 2mM) 1.02 ± 0.16; (concentration: 4mM) 1.04 ± 0.13; (concentration: 6mM) 1.02 ± 0.17. Further, the NP40-soluble protein abundance is 1.02 ± 0.1 (concentration: 8mM) and 0.993 ± 0.086 (concentration: 10mM).

On to “F8W057 and related entries (UniProt Q9GZN1)”, for which the NP40-soluble protein abundance is, setting by setting: (concentration: 0.1mM) 1.02 ± 0.083; (concentration: 0.5mM) 1.08 ± 0.063; (concentration: 1mM) 1.07 ± 0.034; (concentration: 2mM) 1.11 ± 0.034; (concentration: 4mM) 1.1 ± 0.065; (concentration: 6mM) 1.03 ± 0.089. For the same target, the NP40-soluble protein abundance is, setting by setting: (concentration: 8mM) 1.2 ± 0.028; (concentration: 10mM) 1.17 ± 0.089.

Values taken from the supplement of paper PMC6411743.
